According to patent US7842677B2, “Synthetic ganglioside derivatives and compositions thereof” (Seneb Biosciences, Inc., priority 2001, dated 2010):
Some entries share one result that the patent states for a list of compounds.

Tested on: Ventral Mesophenthalic Cells (VMCs)
Test: MPTP/VMC assay (in vitro) for neuroprotective efficacy
Type: cell-based, rat
Conditions: after MPTP 10 μM for 24 hours

Row | Substance | protection (30 μM) | protection (10 μM)
1 | GM1 | 30-50% | 
2 | LIGA-20 |  | 30-50%
